PubChem BioAssay AID1458 (National Center for Advancing Translational Sciences (NCATS), 2008)
Among all 210,000 compounds or so, about 5,900 (2.8%) were called active. Not shown: some 5% with an inconclusive outcome. The call rests on the fitted dose curve; in most records, active means well fitted activation curve with a large enough effect; inconclusive means small, poorly fitted or top-dose-only effect; inactive means no such curve, though single readings can be large or run the other way. Only a part is listed here, and it is no random draw. The source gives no active or inactive call for entries shown without one.

Assay: qHTS Assay for Enhancers of SMN2 Splice Variant Expression; further: nearly all actives have a fitted effect of over 55% in size; on activity change, positive = activation: % of control where 0% means no effect
Conditions: HEK293 SMN2-luciferase splicing reporter, luminescence, 30-36 h; activity change, positive = activation: at 46.1 µM (top of the series) unless noted
Method in brief: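 qHTS luciferase splicing reporter: luminescence rises when SMN2 exon 7 is included in transfected HEK293 cells. Compound exposure lasted 30-36 h at 37C, with 4.5 mM final sodium butyrate as control, followed by a ONE-Glo read.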
Potency means the concentration at half of the fitted maximal effect.

Row | Compound | activity change, positive = activation | Potency
1 | NCCc1nnc(SCc2ccccc2)o1 | 33.2% | 
2 | C=CCNC(=O)c1ccc(Cn2cc(C(F)(F)F)ccc2=O)cc1 | 49.9% | 
3 | COc1ccccc1NC(=O)CC(NCCN(C)C)C(=O)O (stereo unspecified) | -38% | 
4 | O=C(Nc1ccc2c(c1)OCO2)N1CCOCC1 | 44.4% | 
5 | CCN1c2ccccc2NC2N=C(OC)C(c3ccccc3)C21 (stereo unspecified) | -65.5% | 
6 | O=C(CSc1ncc(-c2ccc(F)cc2)[nH]1)Nc1cccc(O)c1 | 36.5% | 
7 | COc1ccc(/C=C\c2nc(=O)c3ccccc3o2)cc1 | 149% | 
8 | CCOC(=O)N1CCN(C(=O)c2ccc3c(c2)sc2nc(-c4ccccc4)cn23)CC1 | inactive: -32.2% | 
9 | COc1ccc(CCNc2nc(-c3sc(C)nc3C)cs2)cc1OC | inactive: -47.9% | 
10 | CCn1cc(Cl)c(C(=O)Nc2ccc(OC)c(OC)c2)n1 | inactive: -41.6% | 
11 | CC(Oc1ccc(Cl)cc1Cl)C(=O)N/N=C1\CCCc2ccccc21 (stereo unspecified) | 32.4% | 
12 | Cc1cc(OCc2nc(N)nc(N)c2-c2ccc(Cl)c(Cl)c2)ccc1[N+](=O)[O-] | inactive: -39.7% [at 9.22 µM] | 
13 | O=C(NCCN1CCOCC1)c1ccncc1 | 33.2% | 
14 | Cc1ccc(OCC(=O)O/N=C(\N)c2cccnc2)cc1 | 49.7% | 
15 | Cc1ccc2c(CC(=O)NCc3ccc4c(c3)OCO4)coc2c1 | 37.3% | 
16 | CCc1ccc(C(=O)NCc2cnn(C)c2)s1 | 31.9% | 
17 | COc1ccc(NC(=O)c2sc(SC)nc2N)cc1 |  | active: 12.6 µM
18 | CCOC(=O)C1CCCN(C(=O)C2CC(=O)N(c3ccc(C)cc3)C2)C1 (stereo unspecified) | 35.8% | 
19 | O=C(N/N=C/C1CC2CCC1C2)c1ccc2c(c1)OCO2 (stereo unspecified) | inactive: -2.94% | 

Some of these compounds in order of heavy-atom count, low to high:
Row | Compound | activity change, positive = activation | Potency
16 | CCc1ccc(C(=O)NCc2cnn(C)c2)s1 | 31.9% | 
2 | C=CCNC(=O)c1ccc(Cn2cc(C(F)(F)F)ccc2=O)cc1 | 49.9% | 
9 | COc1ccc(CCNc2nc(-c3sc(C)nc3C)cs2)cc1OC | inactive: -47.9% | 
8 | CCOC(=O)N1CCN(C(=O)c2ccc3c(c2)sc2nc(-c4ccccc4)cn23)CC1 | inactive: -32.2% | 

Remaining list, next part.

Row | Compound | activity change, positive = activation | Potency
20 | COc1ccccc1NC(=O)c1ncn(-c2ccccc2)n1 |  | active: 11.2 µM
21 | O=S(=O)(N1CCCCC1)N1CCN(c2ccccc2F)CC1 | 41% | 
22 | COc1ccc(/C=C/C(=O)N2c3ccccc3Sc3ccc(C(F)(F)F)cc32)cc1 | 38.5% [at 1.84 µM] | 
23 | O=C(Cc1coc(-c2ccc(F)cc2)n1)NCc1ccccc1 | 18.7% | 
24 | CCc1cccc(C)c1NC(=O)CSc1nnc(-c2ccco2)n1N | 36.1% | 
25 | N=c1ccn2c(n1)O[C@H]1[C@@H](O)[C@@H](CO)O[C@H]12 | inactive: -35.8% | 
26 | O=C(N/N=C\c1ccc(Oc2ccccc2)cc1)c1csnn1 |  | active: 15.8 µM
27 | O=C(OCC(=O)c1c[nH]c2ccccc12)c1ccc(Br)o1 | 37.9% | 
28 | COc1cc(OC)cc(C(=O)NNC(=O)c2ccccn2)c1 | -95.6% | 
29 | COC(=O)c1sc2nc3c(cc2c1N)CCCC3 |  | active: 10 µM
30 | CC(=O)Nc1cccc(NC(=O)CSc2nnnn2Cc2ccccc2)c1 | -31.6% | 
31 | COC(=O)Cc1ccc(NC(=S)NCC(C)C)cc1 | 19.3% | 
32 | CN(C)c1ccc(/C=C/C(=O)c2ccccc2O)cc1 | 144% | 
33 | CCOc1ccc(NCCC(=O)c2ccc3c(c2)OCO3)cc1 | 35.3% | 
34 | Cc1ccc(C(C(=O)NC2CCCCC2)N(C(=O)c2csnn2)C2CCCC2)o1 (stereo unspecified) | 36.1% | 
35 | O=C(c1ccc(CSc2nc3ccncc3[nH]2)cc1)N1CCN(c2cccc(Cl)c2)CC1 | inactive: -70% | 
36 | CN(C)/C=C/C(=O)c1ccc(N2CCN(c3ncc(C(F)(F)F)cc3Cl)CC2)cc1 | -55.9% | 
37 | O=C(CSc1ncc(-c2ccccc2)nn1)NCc1ccco1 | 50.6% | 
38 | Cc1[nH]c(=O)c(C(=O)/C=C/c2ccccc2F)c2c1CCCC2 | inactive: -82.8% | 

Row | Compound | activity change, positive = activation | Potency
39 | CC(C)(CO)NCc1ccccc1OCC(=O)Nc1ccccc1 | 49.9% | 
40 | CC(C)CC1NC(=S)N(Cc2ccccc2)C1=O (stereo unspecified) | -72.3% | 
41 | CCC(C)NC(=O)c1cc2cc3ccc(OC)cc3nc2s1 (stereo unspecified) |  | active: 12.6 µM
42 | O=C(Nc1nc(-c2cccs2)cs1)c1cccc(S(=O)(=O)N2CCCCCC2)c1 | inactive: -67.8% | 
43 | Cc1cc(C)c(C)c(S(=O)(=O)Nc2ccccc2C(=O)NCCCn2ccnc2)c1C | 43.1% | 
44 | COc1ccc2c(OC)cc(=O)n(C)c2c1 | 48.2% | 
45 | Cc1cccc(-c2nc(=S)c3c(n2Cc2ccco2)CCCC3)c1 | 43.1% | 
46 | CC(=O)Cc1nsc(NC(=O)c2ccco2)n1 | 46.6% | 
47 | O=C(COc1ccccc1)Nc1cccc(-c2nc3cc4ccccc4cc3[nH]2)c1 |  | active: 1.78 µM
48 | CN(C)c1ccc(-c2noc(C3CCN(S(=O)(=O)c4cccc(Cl)c4)CC3)n2)cc1 | -53.1% | 
49 | Cc1cc(=O)[nH]c(N2CCc3ccccc3C2)n1 | 30.3% | 
50 | COc1ccc(S(=O)(=O)Nc2ccc(S(=O)(=O)N3CCOCC3)cc2)cc1C | 47.5% | 
51 | CCOCC(=O)Nc1nc2ccc(C)cc2s1 |  | active: 10 µM
52 | O=c1c2ccccc2cnn1-c1nc2ccccc2[nH]1 | -83.6% | 
53 | Cc1ccc2c(=O)cc(C(=O)Nc3sc4c(c3C(=O)NCc3cccnc3)CCCC4)oc2c1 | 32.2% | 
54 | Cc1ccc(CNCc2cc3c(C(C)(C)C)nn(-c4ccccc4)c3[nH]c2=O)cc1 | 70.5% | 
55 | Cc1nnc(C)n1/N=C/c1cc(Br)cc(Br)c1O | 36.7% | 
56 | COc1ccc(C(=O)OCC(=O)Nc2ccc(Cl)cn2)cc1 | 35.5% | 
